From article PMC11178546 come the findings set out here.

Sequences of proteins named here, by UniProt entry; tags and fusion partners are left off. Residues count along the entry.
UniProt P98194: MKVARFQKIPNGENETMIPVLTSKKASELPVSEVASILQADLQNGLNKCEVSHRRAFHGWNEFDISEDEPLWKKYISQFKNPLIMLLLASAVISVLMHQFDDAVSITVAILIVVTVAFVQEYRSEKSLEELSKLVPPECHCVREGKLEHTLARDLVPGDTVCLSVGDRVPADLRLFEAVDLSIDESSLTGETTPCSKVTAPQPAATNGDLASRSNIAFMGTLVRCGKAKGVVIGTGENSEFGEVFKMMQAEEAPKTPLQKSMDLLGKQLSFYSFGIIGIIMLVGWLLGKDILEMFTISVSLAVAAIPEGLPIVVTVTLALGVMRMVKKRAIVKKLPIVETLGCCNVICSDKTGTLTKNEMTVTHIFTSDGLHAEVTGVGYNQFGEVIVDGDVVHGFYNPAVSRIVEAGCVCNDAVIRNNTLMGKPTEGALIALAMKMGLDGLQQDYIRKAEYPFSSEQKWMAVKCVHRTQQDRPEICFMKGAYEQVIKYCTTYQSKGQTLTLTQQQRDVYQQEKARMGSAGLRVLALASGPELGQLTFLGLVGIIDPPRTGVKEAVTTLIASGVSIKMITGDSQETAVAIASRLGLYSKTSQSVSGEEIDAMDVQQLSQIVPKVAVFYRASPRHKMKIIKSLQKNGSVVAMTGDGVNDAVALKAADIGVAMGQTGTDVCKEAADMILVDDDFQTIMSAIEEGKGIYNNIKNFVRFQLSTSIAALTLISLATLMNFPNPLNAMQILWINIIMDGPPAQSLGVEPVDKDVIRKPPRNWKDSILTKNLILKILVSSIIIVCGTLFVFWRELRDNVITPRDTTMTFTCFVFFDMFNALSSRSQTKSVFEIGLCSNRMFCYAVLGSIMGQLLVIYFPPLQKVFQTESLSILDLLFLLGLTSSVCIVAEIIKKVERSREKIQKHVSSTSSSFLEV
UniProt Q9H4A6: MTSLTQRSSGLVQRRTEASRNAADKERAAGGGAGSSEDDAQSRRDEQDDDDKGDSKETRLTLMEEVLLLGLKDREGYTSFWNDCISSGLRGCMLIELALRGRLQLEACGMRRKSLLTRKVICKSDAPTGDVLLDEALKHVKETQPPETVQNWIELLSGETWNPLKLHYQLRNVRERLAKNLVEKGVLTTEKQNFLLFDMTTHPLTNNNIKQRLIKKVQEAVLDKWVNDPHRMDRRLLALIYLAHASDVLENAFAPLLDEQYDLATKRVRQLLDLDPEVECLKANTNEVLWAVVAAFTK
UniProt P05067, residues 18-770: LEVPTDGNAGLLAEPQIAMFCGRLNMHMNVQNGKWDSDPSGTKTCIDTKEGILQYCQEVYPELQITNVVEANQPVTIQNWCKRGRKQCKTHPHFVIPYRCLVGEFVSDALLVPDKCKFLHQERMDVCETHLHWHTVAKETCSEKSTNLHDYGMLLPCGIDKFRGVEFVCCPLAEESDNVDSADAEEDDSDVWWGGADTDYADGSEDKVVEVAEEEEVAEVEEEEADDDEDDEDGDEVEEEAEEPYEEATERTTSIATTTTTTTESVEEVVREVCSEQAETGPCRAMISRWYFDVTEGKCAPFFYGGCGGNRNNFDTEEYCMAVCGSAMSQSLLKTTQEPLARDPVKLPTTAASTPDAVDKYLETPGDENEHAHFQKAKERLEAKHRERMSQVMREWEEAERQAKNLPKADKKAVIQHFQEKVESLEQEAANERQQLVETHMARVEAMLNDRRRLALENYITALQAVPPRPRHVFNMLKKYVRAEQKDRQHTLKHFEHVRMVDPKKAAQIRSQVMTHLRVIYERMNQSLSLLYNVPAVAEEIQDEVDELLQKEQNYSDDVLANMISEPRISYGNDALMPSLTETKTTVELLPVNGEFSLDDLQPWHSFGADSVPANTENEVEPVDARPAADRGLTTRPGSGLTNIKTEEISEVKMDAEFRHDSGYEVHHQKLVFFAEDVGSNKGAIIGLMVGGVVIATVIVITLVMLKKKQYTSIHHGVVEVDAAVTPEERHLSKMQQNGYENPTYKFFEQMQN

Like-named read-outs stand apart in the source and are kept apart here. Results are given in words; binding and its absence hold for the method and conditions named. Binding seen in cells or lysates may run through a third protein. Some entries that bind do so weakly or less than the wild type.

In assay [1] the target is T1, full-length GOLIM4 (reconstituted in GOLIM4-KO H1299 cells) (human) (UniProt O00461).
T1 sequence: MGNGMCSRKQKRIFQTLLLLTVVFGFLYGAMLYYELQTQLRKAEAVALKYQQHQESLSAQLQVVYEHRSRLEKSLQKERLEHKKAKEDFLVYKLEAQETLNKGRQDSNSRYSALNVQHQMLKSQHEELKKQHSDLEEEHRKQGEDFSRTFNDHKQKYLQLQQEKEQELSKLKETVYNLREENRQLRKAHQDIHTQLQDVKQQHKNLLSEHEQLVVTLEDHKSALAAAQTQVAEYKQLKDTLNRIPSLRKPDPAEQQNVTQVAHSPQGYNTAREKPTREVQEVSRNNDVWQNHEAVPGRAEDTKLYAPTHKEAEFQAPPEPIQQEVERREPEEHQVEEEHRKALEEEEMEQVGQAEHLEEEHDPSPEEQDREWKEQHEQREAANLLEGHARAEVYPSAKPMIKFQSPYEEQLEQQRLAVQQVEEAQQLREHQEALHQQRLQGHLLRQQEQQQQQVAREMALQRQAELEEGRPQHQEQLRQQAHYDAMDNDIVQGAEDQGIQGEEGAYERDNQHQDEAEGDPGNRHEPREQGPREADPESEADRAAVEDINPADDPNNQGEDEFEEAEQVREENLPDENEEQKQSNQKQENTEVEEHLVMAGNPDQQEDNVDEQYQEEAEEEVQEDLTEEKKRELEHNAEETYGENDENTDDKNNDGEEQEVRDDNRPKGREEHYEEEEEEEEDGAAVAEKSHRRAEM
Kind of assay: co-IP; IP/WB; H1299 cells (parental or GOLIM4-KO reconstituted) transfected with the indicated expression vectors, lysed after 48 hours in 1x RIPA buffer, antibodies at 4°C overnight, protein G agarose beads; RBFOX2 siRNA attenuated the GOLIM4-ATP2C1 interaction.

In assay [2] the target is T2, Golgi integral membrane protein 4 (GOLIM4) in H1299 cells (human) (UniProt O00461).
T2 sequence: T1 sequence
Described as above.

The target of assay [3] is T3, Ca2+-binding protein 45 kDa (CAB45) (human) (UniProt Q9BRK5).
T3 sequence: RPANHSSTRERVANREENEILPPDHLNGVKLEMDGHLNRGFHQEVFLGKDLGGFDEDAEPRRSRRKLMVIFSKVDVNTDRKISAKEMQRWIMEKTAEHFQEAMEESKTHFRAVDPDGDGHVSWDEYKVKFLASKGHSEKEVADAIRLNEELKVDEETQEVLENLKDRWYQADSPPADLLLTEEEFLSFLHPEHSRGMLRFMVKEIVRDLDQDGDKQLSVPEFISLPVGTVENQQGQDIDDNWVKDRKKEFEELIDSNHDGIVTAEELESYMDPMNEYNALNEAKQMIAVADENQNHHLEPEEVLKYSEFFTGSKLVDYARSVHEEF
The description is as above.

Assay [4] deals with T2, Golgi integral membrane protein 4 (GOLIM4) in H1299 cells (human). Nature of the assay: co-IP; co-IP from Mn-treated cells.
Assay [5] deals with T3, Ca2+-binding protein 45 kDa (CAB45) (human). Nature of the assay: co-IP; IP/WB; H1299 cells (parental or GOLIM4-KO reconstituted) transfected with the indicated expression vectors, lysed after 48 hours in 1x RIPA buffer, antibodies at 4°C overnight, protein G agarose beads; RBFOX2 siRNA attenuated the GOLIM4-ATP2C1 interaction. This is another data set of the same source.

Take “ATPase secretory pathway Ca2+ transporting 1 (ATP2C1) (from UniProt P98194 1-919)”: the binding entry in assay [1] and in assay [2] was “binds” each time.
With HA-GOLPH3 (from UniProt Q9H4A6 1-298), the binding entry in assay [2] is “binds”.
“amyloid precursor protein (APP) (from UniProt P05067 18-770)”: the binding result in assay [3] is given as “binds”.

B1: GGA1 (protein, UniProt Q9UJY5 1-639)
chain: MEPAMEPETLEARINRATNPLNKELDWASINGFCEQLNEDFEGPPLATRLLAHKIQSPQEWEAIQALTVLETCMKSCGKRFHDEVGKFRFLNELIKVVSPKYLGSRTSEKVKNKILELLYSWTVGLPEEVKIAEAYQMLKKQGIVKSDPKLPDDTTFPLPPPRPKNVIFEDEEKSKMLARLLKSSHPEDLRAANKLIKEMVQEDQKRMEKISKRVNAIEEVNNNVKLLTEMVMSHSQGGAAAGSSEDLMKELYQRCERMRPTLFRLASDTEDNDEALAEILQANDNLTQVINLYKQLVRGEEVNGDATAGSIPGSTSALLDLSGLDLPPAGTTYPAMPTRPGEQASPEQPSASVSLLDDELMSLGLSDPTPPSGPSLDGTGWNSFQSSDATEPPAPALAQAPSMESRPPAQTSLPASSGLDDLDLLGKTLLQQSLPPESQQVRWEKQQPTPRLTLRDLQNKSSSCSSPSSSATSLLHTVSPEPPRPPQQPVPTELSLASITVPLESIKPSNILPVTVYDQHGFRILFHFARDPLPGRSDVLVVVVSMLSTAPQPIRNIVFQSAVPKVMKVKLQPPSGTELPAFNPIVHPSAITQVLLLANPQKEKVRLRYKLTFTMGDQTYNEMGDVDQFPPPETWGSL
B1: the binding result in assay [4] was “binds”.

B2: γ glutamyl hydrolase (GGH) (protein, UniProt Q92820 25-318)
chain: RPHGDTAKKPIIGILMQKCRNKVMKNYGRYYIAASYVKYLESAGARVVPVRLDLTEKDYEILFKSINGILFPGGSVDLRRSDYAKVAKIFYNLSIQSFDDGDYFPVWGTCLGFEELSLLISGECLLTATDTVDVAMPLNFTGGQLHSRMFQNFPTELLLSLAVEPLTANFHKWSLSVKNFTMNEKLKKFFNVLTTNTDGKIEFISTMEGYKYPVYGVQWHPEKAPYEWKNLDGISHAPNAVKTAFYLAEFFVNEARKNNHHFKSESEEEKALIYQFSPIYTGNISSFQQCYIFD
Take B2: in assay [5], the binding entry is “binds”.
